The text below walks through data of publication PMC13452685.

No constants are given. Whether binding was seen depends on the method and setting. In cells and extracts the contact can be indirect. A result given as binding can be weak or reduced; the word gives no strength.

In this experiment the target is Apoptosis-associated speck-like protein containing a CARD (rat (endogenous in primary cortical neurons)). Briefly: co-IP; lysates of rat primary cortical neurons after OGD/R incubated overnight at 4°C with anti-ASC or mouse IgG, protein A/G magnetic beads 2 hours at 4°C, western blot of the eluate.

B1: Z-DNA binding protein 1 (protein, UniProt Q8VDA5 1-409)
chain: MAEASVDLGTGDNLEQKILQVLSDAGSPVQIDQLLKKLQVPKKILNQVLYRLKKEGRVSSPAPATWSLGGDGASGDGAPEIPEDSAAQPSLEERILRFLETKGPQRALHIAKALGMTTAKEVNPILYSMRNKHLLTVSDTQMWTIYRSSQEGQERACSGVGQESPAVIYQQNPINMICQQGPNSLISISNSKAIQIGHGNVMSRQTICGDPGPGTPHHAPLPVLEDAAAQDTPPGTHGAQLIHLNKSMLRRVQLGHGNEMNLERDPVEHPIFSFSSSPPESTTTADPETAFNMQTPEPGPHPEGGTTQIVHIKSCLLEDTTVGNNNKMTIHRRSKGGTKESADSQELKEDTGASSEATPPRSCLHTPSDSTLLTSELTAMALGDGSPQITESMLREDEVQAAETCQTQD
For B1, the binding entry was “binds”.

B2: cysteinyl aspartate specific protease 8 (enzyme, UniProt Q9JHX4 1-482)
chain: MDFHSCLYDIAERLGNEELAALKFLCLDHIPQKKQESINDVLVLFQRLQEEGMLEEDNLSFLKELLFHISRRDLLSRVLKSSPEEMVRELQVLGKAQVSAYRVMLFKLSEDMDKEDLKSFKFLLITEIPKCKLQDNSSLLDIFVEMEKRTILAENNLVTLKSICFRVNRSLLGRIDDYERSSTERRMSTEGGEELPVSVLDEVTIKMQDMWDSPGEQESESLNSDNVYQMKSKPRGYCLIFNNNNFSKAREDIPKLSNMRDRKGTNYDEEALSKTFKELHFEIVSFSDCTASQIHEVLVSYQSKDHKGKDCFICCILSHGDKGIVYGTDGKEASIYELTSYFTGSKCPSLAGKPKIFFIQACQGNNFQKAVPVPDETGLEQEHVLEEDSSSYKNYIPDEADFLLGMATVKNCVSYRDPTRGTWYIQSLCQSLRERCPRGEDILSILTGVNYDVSNKDNPRNMGKQMPQPIFTLRKKLFFPPN
On to B2, for which the binding result is “binds”.
